The target of experiment [1] is N-terminal 3xHA-tagged wild-type Irc20 (S. cerevisiae) (UniProt Q06554). Briefly: affinity purification with mass spectrometry; native lysis; 15 mg total yeast lysate on anti-HA agarose beads, 4°C, 2 hours; eluted with HA peptide; three replicates against an untagged Irc20 control; tandem mass spectrometry.
In experiment [2] the target is 3xHA-Irc20-C1239A RING mutant (S. cerevisiae) (UniProt Q06554). Kind of experiment: affinity purification with mass spectrometry; cells cross-linked in vivo with 1% formaldehyde for 9 minutes, quenched with 125 mM glycine; anti-HA immunoprecipitation; three replicates; mass spectrometry.

Sequences of proteins named here, by UniProt entry; tags and fusion partners are left off. A change or cut given only in a name is not applied to a line headed by its entry.
UniProt Q06554: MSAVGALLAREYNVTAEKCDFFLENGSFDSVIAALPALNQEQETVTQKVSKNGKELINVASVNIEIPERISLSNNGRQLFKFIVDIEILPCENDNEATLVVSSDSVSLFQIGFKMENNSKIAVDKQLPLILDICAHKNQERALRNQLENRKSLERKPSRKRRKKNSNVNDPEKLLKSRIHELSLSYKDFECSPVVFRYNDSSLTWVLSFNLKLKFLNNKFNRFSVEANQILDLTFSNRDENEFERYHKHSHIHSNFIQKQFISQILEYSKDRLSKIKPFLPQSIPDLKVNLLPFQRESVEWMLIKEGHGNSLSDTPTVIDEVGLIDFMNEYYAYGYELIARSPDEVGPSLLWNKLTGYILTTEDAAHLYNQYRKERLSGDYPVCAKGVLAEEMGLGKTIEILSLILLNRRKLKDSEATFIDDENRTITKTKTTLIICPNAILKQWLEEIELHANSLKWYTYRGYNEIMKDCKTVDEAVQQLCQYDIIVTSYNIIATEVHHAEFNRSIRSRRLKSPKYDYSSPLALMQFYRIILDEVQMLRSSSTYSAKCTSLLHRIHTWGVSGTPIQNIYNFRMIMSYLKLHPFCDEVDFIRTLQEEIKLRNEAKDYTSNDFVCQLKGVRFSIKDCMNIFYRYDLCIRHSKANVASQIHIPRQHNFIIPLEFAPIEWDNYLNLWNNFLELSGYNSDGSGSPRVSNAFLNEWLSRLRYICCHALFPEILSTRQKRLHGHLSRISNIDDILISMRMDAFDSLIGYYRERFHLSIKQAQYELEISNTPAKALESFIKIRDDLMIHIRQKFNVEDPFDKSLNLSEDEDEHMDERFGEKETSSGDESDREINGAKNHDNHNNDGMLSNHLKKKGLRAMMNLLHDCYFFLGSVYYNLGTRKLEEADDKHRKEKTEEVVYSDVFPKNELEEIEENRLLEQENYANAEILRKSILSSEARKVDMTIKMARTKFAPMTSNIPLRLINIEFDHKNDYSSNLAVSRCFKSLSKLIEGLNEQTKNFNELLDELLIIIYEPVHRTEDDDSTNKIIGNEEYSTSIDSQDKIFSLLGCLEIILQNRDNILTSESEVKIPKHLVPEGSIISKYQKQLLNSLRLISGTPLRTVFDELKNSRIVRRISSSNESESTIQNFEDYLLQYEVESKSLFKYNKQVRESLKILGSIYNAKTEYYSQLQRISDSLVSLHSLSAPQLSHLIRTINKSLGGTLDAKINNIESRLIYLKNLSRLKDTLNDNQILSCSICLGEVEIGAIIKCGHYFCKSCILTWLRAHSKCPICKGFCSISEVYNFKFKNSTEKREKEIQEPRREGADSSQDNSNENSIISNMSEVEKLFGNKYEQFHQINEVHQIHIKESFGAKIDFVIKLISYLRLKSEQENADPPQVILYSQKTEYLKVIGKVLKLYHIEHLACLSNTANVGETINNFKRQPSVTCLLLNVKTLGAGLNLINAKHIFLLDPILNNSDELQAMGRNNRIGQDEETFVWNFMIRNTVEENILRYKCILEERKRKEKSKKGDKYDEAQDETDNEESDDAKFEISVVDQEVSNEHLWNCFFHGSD
UniProt P25491: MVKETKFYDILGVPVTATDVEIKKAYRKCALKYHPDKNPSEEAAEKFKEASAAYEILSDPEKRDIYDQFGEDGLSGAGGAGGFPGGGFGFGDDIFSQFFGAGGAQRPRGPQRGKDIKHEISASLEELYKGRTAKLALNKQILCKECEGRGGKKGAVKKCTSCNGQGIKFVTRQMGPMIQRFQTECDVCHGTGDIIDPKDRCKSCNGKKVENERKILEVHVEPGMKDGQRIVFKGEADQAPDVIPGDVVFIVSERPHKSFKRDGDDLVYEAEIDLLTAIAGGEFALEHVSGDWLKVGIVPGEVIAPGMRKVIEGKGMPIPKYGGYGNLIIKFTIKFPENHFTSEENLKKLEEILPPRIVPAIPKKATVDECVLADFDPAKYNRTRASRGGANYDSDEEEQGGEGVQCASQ
UniProt P25694: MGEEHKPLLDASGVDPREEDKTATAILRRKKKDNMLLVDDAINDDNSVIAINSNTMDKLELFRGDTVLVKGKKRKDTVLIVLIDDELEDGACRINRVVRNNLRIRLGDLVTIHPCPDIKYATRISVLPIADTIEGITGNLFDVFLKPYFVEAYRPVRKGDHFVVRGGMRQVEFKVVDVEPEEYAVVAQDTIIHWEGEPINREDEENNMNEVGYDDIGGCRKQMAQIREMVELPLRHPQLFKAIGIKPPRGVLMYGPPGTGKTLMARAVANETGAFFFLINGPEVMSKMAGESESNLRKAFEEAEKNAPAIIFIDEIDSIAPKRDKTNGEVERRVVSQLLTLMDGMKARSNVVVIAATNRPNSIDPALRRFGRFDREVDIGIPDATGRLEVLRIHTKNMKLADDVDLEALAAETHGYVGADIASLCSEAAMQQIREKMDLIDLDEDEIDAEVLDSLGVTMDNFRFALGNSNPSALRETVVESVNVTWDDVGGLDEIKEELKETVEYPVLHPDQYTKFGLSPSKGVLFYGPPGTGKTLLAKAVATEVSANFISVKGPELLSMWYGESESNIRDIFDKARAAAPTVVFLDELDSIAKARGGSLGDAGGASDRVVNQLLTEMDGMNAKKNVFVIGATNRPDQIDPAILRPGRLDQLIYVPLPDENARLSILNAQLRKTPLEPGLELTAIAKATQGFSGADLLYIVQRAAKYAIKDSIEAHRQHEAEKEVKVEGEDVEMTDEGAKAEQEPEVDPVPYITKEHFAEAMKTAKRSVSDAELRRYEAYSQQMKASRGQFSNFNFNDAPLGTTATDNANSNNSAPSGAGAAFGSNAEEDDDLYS

No constants are given. Whether binding was seen depends on the method and setting. In cells and extracts the contact can be indirect. A yes stands for co-enrichment or nearness to the bait. Other partners may have been found.

For Ydj1 (from UniProt P25491 1-409), the binding entry in experiment [1] is given as “binds”. As to “Cdc48 (endogenous, untagged) (from UniProt P25694 1-835)”, in experiment [2], the binding entry is “binds”.

Values taken from publication PMC3796546.
